Test results as given in publication PMC6438731, “Extrasynaptic δ‐GABAA receptors are high‐affinity muscimol receptors” (Journal of Neurochemistry, 2019).
Where “and” joins values, the source holds several entries; their conditions need not be identical. Equal entries are not always repeated.

Tests used:
[1] = test system: forebrain membranes of δKO mice (non‐δ‐GABAARs); experiment: [^3H]muscimol binding kinetics, δKO forebrain membranes; parameters: species or system mouse; details: 22°C
Method: (§1) WT and δKO forebrain and cerebellar membranes were prepared using a modification of the method of Squires and Saederup (2000) essentially as described by Uusi‐Oukari et al. (2014). […] forebrain along with midbrain region was homogenized into 10 mM Tris‐HCl, pH 8.0 buffer containing 2 mM EDTA, using an Ultra‐Turrax T25 (Janke & Kunkel IKA labortechnik) for 20 s at 9500 rpm. The homogenates were centrifuged at 20 000 g for 10 min at +4°C and the resulting pellets were washed three times by resuspension and re‐centrifugation with 10 mM Tris‐HCl, pH 8.5 buffer containing 0.2 M NaCl, and 5 mM EDTA. The resulting pellets were then suspended in ice‐cold H2O and centrifuged. […]
(§2) The binding of [^3H]muscimol (5 nM) was measured in assay buffer at 22°C in a total volume of 300 μL. […] Air‐dried filters were immersed in 3 mL of Optiphase HiSafe 3 scintillation fluid (Wallac, Turku, Finland) and radioactivity determined in a Wallac model 1410 liquid scintillation counter (Wallac, Turku, Finland). […]
(§3) The tubes were mixed and incubations at 22°C were terminated at various time points (30 s – 30 min) as described above. Dissociation of [^3H]muscimol from recombinant receptors in HEK cell membranes was also measured at 0–4°C (on ice) to evaluate how fast [^3H]muscimol dissociates from receptors while washing the filter with ice‐cold assay buffer during filtration.

[2] = test system: cerebellar membranes of δKO mice (non‐δ‐GABAARs); experiment: [^3H]muscimol binding kinetics, δKO cerebellar membranes; parameters: species or system mouse; details: 22°C
Method: as §1, §2, §3

NCc1cc(=O)[nH]o1 [[^3H]muscimol] [[Methylene‐^3H]muscimol]
reduction of 5 nM [^3H]muscimol binding in δKO compared to WT mice [1]: > 50% and ~ 60%
reduction of 5 nM [^3H]muscimol binding in δKO compared to WT mice [2]: > 50% and ~ 60%
